# Results taken from the supplement of paper PMC10032668.
# Sequences of proteins named here, by UniProt entry; tags and fusion partners are left off.
# EIF4B, P23588, UniProt P23588, whole entry: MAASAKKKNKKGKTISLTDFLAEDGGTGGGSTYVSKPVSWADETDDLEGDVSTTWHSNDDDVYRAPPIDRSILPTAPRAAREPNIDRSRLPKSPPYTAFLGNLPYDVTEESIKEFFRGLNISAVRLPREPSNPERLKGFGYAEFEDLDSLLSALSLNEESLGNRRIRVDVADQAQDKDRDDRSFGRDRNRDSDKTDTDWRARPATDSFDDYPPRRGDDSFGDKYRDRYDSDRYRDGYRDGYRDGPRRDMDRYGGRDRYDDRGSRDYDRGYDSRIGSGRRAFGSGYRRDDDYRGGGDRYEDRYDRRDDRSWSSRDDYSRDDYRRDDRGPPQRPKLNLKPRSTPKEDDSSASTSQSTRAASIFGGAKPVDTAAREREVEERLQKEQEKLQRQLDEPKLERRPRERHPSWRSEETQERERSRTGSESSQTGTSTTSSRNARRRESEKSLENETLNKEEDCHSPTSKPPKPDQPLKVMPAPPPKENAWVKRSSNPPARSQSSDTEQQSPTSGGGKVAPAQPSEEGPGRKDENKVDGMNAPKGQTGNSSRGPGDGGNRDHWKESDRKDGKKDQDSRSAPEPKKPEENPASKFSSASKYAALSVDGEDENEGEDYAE
# HBS1L, Q9Y450, UniProt Q9Y450, whole entry: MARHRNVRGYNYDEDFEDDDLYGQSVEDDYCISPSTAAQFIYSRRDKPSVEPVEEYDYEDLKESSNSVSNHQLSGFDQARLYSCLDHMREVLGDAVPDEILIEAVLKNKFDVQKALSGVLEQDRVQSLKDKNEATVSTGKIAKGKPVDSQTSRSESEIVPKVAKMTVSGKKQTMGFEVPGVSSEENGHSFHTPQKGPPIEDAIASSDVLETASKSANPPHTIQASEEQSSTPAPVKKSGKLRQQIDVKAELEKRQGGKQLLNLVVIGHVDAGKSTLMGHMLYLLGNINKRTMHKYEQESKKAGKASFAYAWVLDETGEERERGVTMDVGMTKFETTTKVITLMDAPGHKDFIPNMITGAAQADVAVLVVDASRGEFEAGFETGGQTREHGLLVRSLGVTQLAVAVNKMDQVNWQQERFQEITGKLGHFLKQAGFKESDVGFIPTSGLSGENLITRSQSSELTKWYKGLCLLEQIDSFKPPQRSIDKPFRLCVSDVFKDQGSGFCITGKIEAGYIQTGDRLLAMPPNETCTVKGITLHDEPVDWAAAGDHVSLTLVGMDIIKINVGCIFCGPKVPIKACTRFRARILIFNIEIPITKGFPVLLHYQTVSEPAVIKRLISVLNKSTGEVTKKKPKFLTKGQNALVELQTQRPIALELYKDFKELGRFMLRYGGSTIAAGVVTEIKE
# GRWD1, Q9BQ67, UniProt Q9BQ67, whole entry: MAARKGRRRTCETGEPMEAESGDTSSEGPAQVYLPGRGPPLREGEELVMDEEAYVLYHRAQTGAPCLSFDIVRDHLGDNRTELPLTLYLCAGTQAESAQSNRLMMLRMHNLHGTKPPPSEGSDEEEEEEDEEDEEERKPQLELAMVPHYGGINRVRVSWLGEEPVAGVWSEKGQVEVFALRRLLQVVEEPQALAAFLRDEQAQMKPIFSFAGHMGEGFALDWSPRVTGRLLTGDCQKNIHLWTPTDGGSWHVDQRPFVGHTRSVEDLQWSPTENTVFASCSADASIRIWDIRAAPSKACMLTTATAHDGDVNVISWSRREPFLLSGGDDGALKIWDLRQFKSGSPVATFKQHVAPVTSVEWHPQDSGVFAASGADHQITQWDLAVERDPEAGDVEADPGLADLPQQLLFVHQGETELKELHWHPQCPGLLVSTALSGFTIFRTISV
# KPNA1, P52294, UniProt P52294, whole entry: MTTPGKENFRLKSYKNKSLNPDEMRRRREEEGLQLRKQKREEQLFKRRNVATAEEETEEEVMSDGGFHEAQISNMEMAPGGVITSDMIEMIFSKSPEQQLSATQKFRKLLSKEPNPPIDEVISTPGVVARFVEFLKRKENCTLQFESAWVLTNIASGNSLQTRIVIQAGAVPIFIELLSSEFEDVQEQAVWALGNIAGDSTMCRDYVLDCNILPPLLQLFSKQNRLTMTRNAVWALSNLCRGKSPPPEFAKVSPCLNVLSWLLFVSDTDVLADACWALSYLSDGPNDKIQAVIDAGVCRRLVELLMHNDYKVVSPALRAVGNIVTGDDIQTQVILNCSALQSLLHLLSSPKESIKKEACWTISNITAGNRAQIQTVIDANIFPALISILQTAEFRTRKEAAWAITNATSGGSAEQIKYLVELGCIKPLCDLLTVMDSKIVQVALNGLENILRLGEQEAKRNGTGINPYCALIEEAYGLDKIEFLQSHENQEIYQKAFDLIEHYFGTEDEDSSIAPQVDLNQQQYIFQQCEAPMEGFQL
# MTHFD1L, Q6UB35, UniProt Q6UB35, whole entry: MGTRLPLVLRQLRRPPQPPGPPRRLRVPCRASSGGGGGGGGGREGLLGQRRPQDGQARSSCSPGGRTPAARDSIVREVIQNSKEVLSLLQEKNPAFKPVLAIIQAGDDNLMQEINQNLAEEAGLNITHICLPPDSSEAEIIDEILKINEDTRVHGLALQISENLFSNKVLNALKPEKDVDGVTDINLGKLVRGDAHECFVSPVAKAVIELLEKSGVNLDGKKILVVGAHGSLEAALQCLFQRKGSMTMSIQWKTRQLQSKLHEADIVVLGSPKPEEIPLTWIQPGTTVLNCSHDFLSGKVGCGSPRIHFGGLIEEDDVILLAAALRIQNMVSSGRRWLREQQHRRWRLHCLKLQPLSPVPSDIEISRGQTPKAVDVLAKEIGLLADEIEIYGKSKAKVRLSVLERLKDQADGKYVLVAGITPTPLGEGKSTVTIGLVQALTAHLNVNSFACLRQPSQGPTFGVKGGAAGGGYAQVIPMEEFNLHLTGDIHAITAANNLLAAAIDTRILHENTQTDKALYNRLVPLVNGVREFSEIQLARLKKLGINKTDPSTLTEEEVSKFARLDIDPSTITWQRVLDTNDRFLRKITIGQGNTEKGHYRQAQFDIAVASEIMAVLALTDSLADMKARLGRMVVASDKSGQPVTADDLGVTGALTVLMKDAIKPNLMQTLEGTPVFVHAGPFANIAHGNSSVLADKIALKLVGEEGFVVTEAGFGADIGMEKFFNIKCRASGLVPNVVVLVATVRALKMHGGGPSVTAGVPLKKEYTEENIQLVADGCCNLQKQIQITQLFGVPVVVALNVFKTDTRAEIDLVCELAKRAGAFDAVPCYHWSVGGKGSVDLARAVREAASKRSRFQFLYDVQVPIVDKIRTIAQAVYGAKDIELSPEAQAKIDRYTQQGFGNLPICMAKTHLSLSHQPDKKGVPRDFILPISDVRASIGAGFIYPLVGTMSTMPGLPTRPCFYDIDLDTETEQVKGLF
# NASP, P49321, UniProt P49321, whole entry: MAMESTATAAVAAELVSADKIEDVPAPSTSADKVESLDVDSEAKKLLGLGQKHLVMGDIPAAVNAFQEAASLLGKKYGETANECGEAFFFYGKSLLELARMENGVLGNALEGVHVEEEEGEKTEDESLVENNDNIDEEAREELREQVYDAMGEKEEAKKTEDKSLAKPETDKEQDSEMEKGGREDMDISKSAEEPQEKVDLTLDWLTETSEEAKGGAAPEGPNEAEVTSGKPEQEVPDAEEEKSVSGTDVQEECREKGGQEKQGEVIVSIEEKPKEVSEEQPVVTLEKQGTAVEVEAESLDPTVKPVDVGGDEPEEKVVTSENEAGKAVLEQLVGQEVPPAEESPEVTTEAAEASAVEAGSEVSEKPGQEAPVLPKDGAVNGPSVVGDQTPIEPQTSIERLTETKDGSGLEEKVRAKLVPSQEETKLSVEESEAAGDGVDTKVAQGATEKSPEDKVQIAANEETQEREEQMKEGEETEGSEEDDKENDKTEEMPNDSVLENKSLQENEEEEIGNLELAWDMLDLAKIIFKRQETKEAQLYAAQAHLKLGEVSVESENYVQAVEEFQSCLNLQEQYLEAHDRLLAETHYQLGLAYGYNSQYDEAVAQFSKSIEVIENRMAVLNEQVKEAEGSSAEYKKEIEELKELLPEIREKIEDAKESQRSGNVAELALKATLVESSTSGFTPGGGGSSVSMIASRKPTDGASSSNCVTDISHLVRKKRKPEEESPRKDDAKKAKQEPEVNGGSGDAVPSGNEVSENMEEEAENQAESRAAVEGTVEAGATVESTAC
# The list shows a part of the results. Only hits are listed; about a third recur on repeated control peptides.
# Columns and labels:
# Assay in all cases: PRISMA enrichment of interactor (LFQ) in peptide spot vs all other peptide spots (log2 fold change); higher = stronger / more specific binding of the interactor to the peptide
# ARGLU1, Q9NWB6 = molecular target: ARGLU1, Q9NWB6
# Experimental: (§1)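 PRISMA: 15-aa overlapping tiles (offset 8 aa) of 60 microproteins, plus SOS1/GLUT1 control peptides, were spot-synthesized on cellulose membranes in triplicate. Membranes were incubated with benzonase-treated HEK293T lysate, and bound proteins were identified by LC-MS/MS with LFQ. Enrichment is the log2 fold change of each protein in one spot versus all other spots. Only interactors passing the significance cutoff are listed.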
# BTAF1, O14981 = molecular target: BTAF1, O14981
# Experimental: as §1
# CDK11A, Q9UQ88 = molecular target: CDK11A, Q9UQ88
# Experimental: as §1
# CLTB, P09497 = molecular target: CLTB, P09497
# Experimental: as §1
# CMAS, Q8NFW8 = molecular target: CMAS, Q8NFW8
# Experimental: as §1
# COPS5, Q92905 = molecular target: COPS5, Q92905
# Experimental: as §1
# EIF4B, P23588 = molecular target: EIF4B, P23588
# Experimental: as §1
# FAM120A, Q9NZB2 = molecular target: FAM120A, Q9NZB2
# Experimental: as §1
# HBS1L, Q9Y450 = molecular target: HBS1L, Q9Y450
# Experimental: as §1
# HIP1R, O75146 = molecular target: HIP1R, O75146
# Experimental: as §1
# LAMTOR4, Q0VGL1 = molecular target: LAMTOR4, Q0VGL1
# Experimental: as §1
# LASP1, Q14847 = molecular target: LASP1, Q14847
# Experimental: as §1
# MRPL54, Q6P161 = molecular target: MRPL54, Q6P161
# Experimental: as §1
# NCOA5, Q9HCD5 = molecular target: NCOA5, Q9HCD5
# Experimental: as §1
# NOLC1, Q14978 = molecular target: NOLC1, Q14978
# Experimental: as §1
# NUP188, Q5SRE5 = molecular target: NUP188, Q5SRE5
# Experimental: as §1
# PABPN1, Q86U42 = molecular target: PABPN1, Q86U42
# Experimental: as §1
# PDIA4, P13667 = molecular target: PDIA4, P13667
# Experimental: as §1
# PEF1, Q9UBV8 = molecular target: PEF1, Q9UBV8
# Experimental: as §1
# PEX11B, O96011 = molecular target: PEX11B, O96011
# Experimental: as §1
# PREX2, Q70Z35 = molecular target: PREX2, Q70Z35
# Experimental: as §1
# RAD51AP1, Q96B01 = molecular target: RAD51AP1, Q96B01
# Experimental: as §1
# RANBP6, O60518 = molecular target: RANBP6, O60518
# Experimental: as §1
# RCC1, P18754 = molecular target: RCC1, P18754
# Experimental: as §1
# RIF1, Q5UIP0 = molecular target: RIF1, Q5UIP0
# Experimental: as §1
# SPTAN1, Q13813 = molecular target: SPTAN1, Q13813
# Experimental: as §1
# TBC1D10B, Q4KMP7 = molecular target: TBC1D10B, Q4KMP7
# Experimental: as §1
# VARS, P26640 = molecular target: VARS, P26640
# Experimental: as §1
# WDR18, Q9BV38 = molecular target: WDR18, Q9BV38
# Experimental: as §1
# WDR74, Q6RFH5 = molecular target: WDR74, Q6RFH5
# Experimental: as §1
# APOB, P04114 = molecular target: APOB, P04114
# Experimental: as §1
# ARMC6, Q6NXE6 = molecular target: ARMC6, Q6NXE6
# Experimental: as §1
# CCT2, P78371 = molecular target: CCT2, P78371
# Experimental: as §1
# EIF2B3, Q9NR50 = molecular target: EIF2B3, Q9NR50
# Experimental: as §1
# GALK1, P51570 = molecular target: GALK1, P51570
# Experimental: as §1
# GAPVD1, Q14C86 = molecular target: GAPVD1, Q14C86
# Experimental: as §1
# GHITM, Q9H3K2 = molecular target: GHITM, Q9H3K2
# Experimental: as §1
# GRWD1, Q9BQ67 = molecular target: GRWD1, Q9BQ67
# Experimental: as §1
# HNRNPH2, P55795 = molecular target: HNRNPH2, P55795
# Experimental: as §1
# KPNA1, P52294 = molecular target: KPNA1, P52294
# Experimental: as §1
# MCM4, P33991 = molecular target: MCM4, P33991
# Experimental: as §1
# MEPCE, Q7L2J0 = molecular target: MEPCE, Q7L2J0
# Experimental: as §1
# MRPL14, Q6P1L8 = molecular target: MRPL14, Q6P1L8
# Experimental: as §1
# MRPL22, Q9NWU5 = molecular target: MRPL22, Q9NWU5
# Experimental: as §1
# MRPL34, Q9BQ48 = molecular target: MRPL34, Q9BQ48
# Experimental: as §1
# MTHFD1L, Q6UB35 = molecular target: MTHFD1L, Q6UB35
# Experimental: as §1
# NASP, P49321 = molecular target: NASP, P49321
# Experimental: as §1
# PCYT1A, P49585 = molecular target: PCYT1A, P49585
# Experimental: as §1
# POLR2B, P30876 = molecular target: POLR2B, P30876
# Experimental: as §1
# PTCD3, Q96EY7 = molecular target: PTCD3, Q96EY7
# Experimental: as §1
# RBM15, Q96T37 = molecular target: RBM15, Q96T37
# Experimental: as §1
# SERF2, P84101 = molecular target: SERF2, P84101
# Experimental: as §1
# SLC25A24, Q6NUK1 = molecular target: SLC25A24, Q6NUK1
# Experimental: as §1
# SRSF7, Q16629 = molecular target: SRSF7, Q16629
# Experimental: as §1
# TNPO3, Q9Y5L0 = molecular target: TNPO3, Q9Y5L0
# Experimental: as §1
# TOMM5, Q8N4H5 = molecular target: TOMM5, Q8N4H5
# Experimental: as §1
# UTP14A, Q9BVJ6 = molecular target: UTP14A, Q9BVJ6
# Experimental: as §1
binder,measurement,setting,value
RSQDIGRSGAALETL [SNHG8],PRISMA enrichment of interactor (log2),"ARGLU1, Q9NWB6",4.49
same,PRISMA enrichment of interactor (log2),"BTAF1, O14981",4.09
same,PRISMA enrichment of interactor (log2),"CDK11A, Q9UQ88",6.83
same,PRISMA enrichment of interactor (log2),"CLTB, P09497",4.97
same,PRISMA enrichment of interactor (log2),"CMAS, Q8NFW8",4.41
same,PRISMA enrichment of interactor (log2),"COPS5, Q92905",5.07
same,PRISMA enrichment of interactor (log2),"EIF4B, P23588",5.36
same,PRISMA enrichment of interactor (log2),"FAM120A, Q9NZB2",4.25
same,PRISMA enrichment of interactor (log2),"HBS1L, Q9Y450",4.21
same,PRISMA enrichment of interactor (log2),"HIP1R, O75146",5.76
same,PRISMA enrichment of interactor (log2),"LAMTOR4, Q0VGL1",3.89
same,PRISMA enrichment of interactor (log2),"LASP1, Q14847",4.94
same,PRISMA enrichment of interactor (log2),"MRPL54, Q6P161",3.86
same,PRISMA enrichment of interactor (log2),"NCOA5, Q9HCD5",5.8
same,PRISMA enrichment of interactor (log2),"NOLC1, Q14978",6.51
same,PRISMA enrichment of interactor (log2),"NUP188, Q5SRE5",6.58
same,PRISMA enrichment of interactor (log2),"PABPN1, Q86U42",4.61
same,PRISMA enrichment of interactor (log2),"PDIA4, P13667",5.66
same,PRISMA enrichment of interactor (log2),"PEF1, Q9UBV8",4.69
same,PRISMA enrichment of interactor (log2),"PEX11B, O96011",7.17
same,PRISMA enrichment of interactor (log2),"PREX2, Q70Z35",4.3
same,PRISMA enrichment of interactor (log2),"RAD51AP1, Q96B01",6.87
same,PRISMA enrichment of interactor (log2),"RANBP6, O60518",6.18
same,PRISMA enrichment of interactor (log2),"RCC1, P18754",4.4
same,PRISMA enrichment of interactor (log2),"RIF1, Q5UIP0",4.98
same,PRISMA enrichment of interactor (log2),"SPTAN1, Q13813",8.01
same,PRISMA enrichment of interactor (log2),"TBC1D10B, Q4KMP7",8.32
same,PRISMA enrichment of interactor (log2),"VARS, P26640",4.35
same,PRISMA enrichment of interactor (log2),"WDR18, Q9BV38",4.46
same,PRISMA enrichment of interactor (log2),"WDR74, Q6RFH5",4.32
MLTAEVRTGRRLITP [PDZRN3-AS1],PRISMA enrichment of interactor (log2),"APOB, P04114",10.6
same,PRISMA enrichment of interactor (log2),"ARMC6, Q6NXE6",5.32
same,PRISMA enrichment of interactor (log2),"CCT2, P78371",6.33
same,PRISMA enrichment of interactor (log2),"EIF2B3, Q9NR50",4.39
same,PRISMA enrichment of interactor (log2),"GALK1, P51570",8.68
same,PRISMA enrichment of interactor (log2),"GAPVD1, Q14C86",5.3
same,PRISMA enrichment of interactor (log2),"GHITM, Q9H3K2",6.47
same,PRISMA enrichment of interactor (log2),"GRWD1, Q9BQ67",5.34
same,PRISMA enrichment of interactor (log2),"HNRNPH2, P55795",8.69
same,PRISMA enrichment of interactor (log2),"KPNA1, P52294",6.63
same,PRISMA enrichment of interactor (log2),"MCM4, P33991",5.31
same,PRISMA enrichment of interactor (log2),"MEPCE, Q7L2J0",7.23
same,PRISMA enrichment of interactor (log2),"MRPL14, Q6P1L8",4.56
same,PRISMA enrichment of interactor (log2),"MRPL22, Q9NWU5",4.72
same,PRISMA enrichment of interactor (log2),"MRPL34, Q9BQ48",5.09
same,PRISMA enrichment of interactor (log2),"MTHFD1L, Q6UB35",9.46
same,PRISMA enrichment of interactor (log2),"NASP, P49321",5.03
same,PRISMA enrichment of interactor (log2),"PCYT1A, P49585",4.61
same,PRISMA enrichment of interactor (log2),"POLR2B, P30876",6.34
same,PRISMA enrichment of interactor (log2),"PTCD3, Q96EY7",4.85
same,PRISMA enrichment of interactor (log2),"RBM15, Q96T37",4.31
same,PRISMA enrichment of interactor (log2),"SERF2, P84101",4.69
same,PRISMA enrichment of interactor (log2),"SLC25A24, Q6NUK1",7.61
same,PRISMA enrichment of interactor (log2),"SRSF7, Q16629",5.52
same,PRISMA enrichment of interactor (log2),"TNPO3, Q9Y5L0",5.08
same,PRISMA enrichment of interactor (log2),"TOMM5, Q8N4H5",5.08
same,PRISMA enrichment of interactor (log2),"UTP14A, Q9BVJ6",4.74

# Reformatted as tab-separated lines: part of the list above.
binder	measurement	setting	value
MLTAEVRTGRRLITP [PDZRN3-AS1]	PRISMA enrichment of interactor (log2)	PCYT1A, P49585	4.61
same	PRISMA enrichment of interactor (log2)	POLR2B, P30876	6.34
same	PRISMA enrichment of interactor (log2)	PTCD3, Q96EY7	4.85
